Experimental data published in PMC8514580, “Insight into the interaction between the RNA helicase CGH-1 and EDC-3 and its implications” (Scientific Reports, 2021).
Positions count from the first letter of the chain named. These are yes or no findings as the source states them, for the method shown. A result given as binding can be weak or reduced; the word gives no strength. For some of these results: Sequences can lack the tags named with a protein. Each block holds one binder with its values, some of them ahead of it.

The chains behind the UniProt entries cited, without tags or fusion partners. Where a name states a change or a piece, a line headed by the entry shows the natural chain unless it says otherwise.
UniProt Q21740: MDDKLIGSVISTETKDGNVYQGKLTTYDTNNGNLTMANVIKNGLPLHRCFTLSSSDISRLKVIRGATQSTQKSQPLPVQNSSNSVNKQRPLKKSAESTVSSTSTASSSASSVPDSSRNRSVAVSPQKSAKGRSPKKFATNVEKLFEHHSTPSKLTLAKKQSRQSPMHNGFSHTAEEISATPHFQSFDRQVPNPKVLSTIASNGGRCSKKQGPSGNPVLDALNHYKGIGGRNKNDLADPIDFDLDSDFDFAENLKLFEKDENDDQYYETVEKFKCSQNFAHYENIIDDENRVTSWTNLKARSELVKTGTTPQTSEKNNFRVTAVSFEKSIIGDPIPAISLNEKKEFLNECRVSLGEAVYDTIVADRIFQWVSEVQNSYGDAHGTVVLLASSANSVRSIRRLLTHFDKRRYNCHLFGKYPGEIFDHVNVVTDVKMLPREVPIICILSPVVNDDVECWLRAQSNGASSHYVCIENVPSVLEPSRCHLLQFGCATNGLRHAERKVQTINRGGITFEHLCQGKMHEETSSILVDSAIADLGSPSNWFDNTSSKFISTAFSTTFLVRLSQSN

Experiments:
[1] = target: GST-EDC-3_(230–566) (C. elegans) (UniProt Q21740); experiment: pull-down; GST-EDC-3_(230-566) on GST resin, 50 μg CGH-1_(248-420) with 0, 12.5, 25 or 50 μM PATR-1 peptide, PBS, 2 h, SDS-PAGE; both purified
[2] = target: GST-EDC-3_(230–566) (C. elegans) (UniProt Q21740); experiment: pull-down; about 100 μg GST or GST-EDC-3_(230-566) on GST resin, ~50 μg CGH-1_(248-420) or 4A mutant, PBS, 2 h, five washes, SDS-PAGE; both purified
[3] = target: GST-EDC-3_(230–566) (C. elegans) (UniProt Q21740); experiment: pull-down; GST-EDC-3_(230-566) on GST resin, 50 μg CGH-1_(248-420) without or with the same amount of CAR-1_(184-268), PBS, 2 h, SDS-PAGE; both purified

binding [1]: binds | binding [2]: binds | binding [3]: binds
B1: CGH-1_(248–420) wild type (CGH-1 RecA2 domain) (domain or fragment, UniProt Q95YF3 248-420)
chain: EELTLLGVTQYYAFVQEKQKVHCLNTLFRKLQINQSIIFCNSTQRVELLAKKITEIGYSCYYIHSKMAQNHRNRVFHDFRQGNCRNLVCSDLLTRGIDIQAVNVVINFDFPRNAETYLHRIGRSGRFGHLGVAINLITYEDRHTLRRIEQELRTRIEPIPKTVDPKLYVADQQ

binding [2]: binds
B2: CGH-1_(248–420) 4A mutant (His269, Cys270, Thr273 and Leu274 to Ala) (domain or fragment, UniProt Q95YF3 248-420)
chain: B1 chain with H22A, C23A, T26A, L27A
